Laboratory results: the supplement of paper PMC10849652
This is one part of the list. Residues, ends and D or L forms follow the SMILES beside them. *: point of attachment. Cbz = O=C(OCc1ccccc1)*

Chains of the proteins cited; added tags and fusions are not shown. Lines headed by an entry give the natural chain unless they say otherwise; changes in a name come on top.
UniProt Q9H9S3, whole entry, looked up: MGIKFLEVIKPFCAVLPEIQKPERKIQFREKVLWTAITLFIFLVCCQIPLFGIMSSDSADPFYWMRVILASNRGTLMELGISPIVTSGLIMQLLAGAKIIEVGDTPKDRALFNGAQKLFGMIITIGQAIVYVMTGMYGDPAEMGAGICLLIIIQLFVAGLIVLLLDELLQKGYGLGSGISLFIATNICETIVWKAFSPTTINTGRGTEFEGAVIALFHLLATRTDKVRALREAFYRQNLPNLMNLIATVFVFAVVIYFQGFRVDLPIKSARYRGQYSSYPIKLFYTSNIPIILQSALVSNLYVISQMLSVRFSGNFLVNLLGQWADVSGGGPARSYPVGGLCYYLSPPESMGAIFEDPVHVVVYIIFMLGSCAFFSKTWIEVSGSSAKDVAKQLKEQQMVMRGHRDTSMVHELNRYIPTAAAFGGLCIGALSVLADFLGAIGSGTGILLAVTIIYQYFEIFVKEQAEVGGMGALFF
UniProt Q9BQE4, whole entry, looked up: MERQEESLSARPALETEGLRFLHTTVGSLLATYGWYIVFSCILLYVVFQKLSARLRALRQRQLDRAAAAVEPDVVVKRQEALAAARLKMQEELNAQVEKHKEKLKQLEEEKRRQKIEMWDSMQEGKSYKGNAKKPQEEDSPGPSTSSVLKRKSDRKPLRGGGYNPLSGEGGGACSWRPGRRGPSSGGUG
UniProt Q5FBB7: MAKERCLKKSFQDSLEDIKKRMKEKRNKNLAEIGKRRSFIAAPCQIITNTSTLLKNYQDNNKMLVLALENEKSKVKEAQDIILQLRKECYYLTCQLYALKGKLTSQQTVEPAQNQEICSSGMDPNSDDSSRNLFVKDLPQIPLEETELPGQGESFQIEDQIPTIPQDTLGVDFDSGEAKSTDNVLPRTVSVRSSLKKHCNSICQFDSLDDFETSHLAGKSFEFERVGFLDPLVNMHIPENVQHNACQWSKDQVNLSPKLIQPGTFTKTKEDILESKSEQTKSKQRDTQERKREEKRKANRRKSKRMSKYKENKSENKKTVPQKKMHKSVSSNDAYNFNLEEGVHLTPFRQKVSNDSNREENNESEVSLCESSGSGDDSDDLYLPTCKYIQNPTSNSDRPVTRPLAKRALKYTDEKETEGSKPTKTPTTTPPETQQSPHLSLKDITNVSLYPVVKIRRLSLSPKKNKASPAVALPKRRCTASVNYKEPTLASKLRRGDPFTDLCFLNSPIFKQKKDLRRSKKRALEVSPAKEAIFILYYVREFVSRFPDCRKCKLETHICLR
UniProt Q99574: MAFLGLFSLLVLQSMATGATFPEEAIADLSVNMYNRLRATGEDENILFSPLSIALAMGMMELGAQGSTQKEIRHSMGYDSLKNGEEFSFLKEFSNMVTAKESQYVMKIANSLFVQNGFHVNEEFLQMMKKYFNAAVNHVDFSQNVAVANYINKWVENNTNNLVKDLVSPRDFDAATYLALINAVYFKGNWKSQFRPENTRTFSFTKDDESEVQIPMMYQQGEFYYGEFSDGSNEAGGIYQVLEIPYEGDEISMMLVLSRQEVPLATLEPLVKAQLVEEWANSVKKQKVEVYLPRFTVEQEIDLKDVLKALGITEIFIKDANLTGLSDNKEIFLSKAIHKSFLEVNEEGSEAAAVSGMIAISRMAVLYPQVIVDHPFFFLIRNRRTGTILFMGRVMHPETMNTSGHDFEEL
UniProt Q53H47: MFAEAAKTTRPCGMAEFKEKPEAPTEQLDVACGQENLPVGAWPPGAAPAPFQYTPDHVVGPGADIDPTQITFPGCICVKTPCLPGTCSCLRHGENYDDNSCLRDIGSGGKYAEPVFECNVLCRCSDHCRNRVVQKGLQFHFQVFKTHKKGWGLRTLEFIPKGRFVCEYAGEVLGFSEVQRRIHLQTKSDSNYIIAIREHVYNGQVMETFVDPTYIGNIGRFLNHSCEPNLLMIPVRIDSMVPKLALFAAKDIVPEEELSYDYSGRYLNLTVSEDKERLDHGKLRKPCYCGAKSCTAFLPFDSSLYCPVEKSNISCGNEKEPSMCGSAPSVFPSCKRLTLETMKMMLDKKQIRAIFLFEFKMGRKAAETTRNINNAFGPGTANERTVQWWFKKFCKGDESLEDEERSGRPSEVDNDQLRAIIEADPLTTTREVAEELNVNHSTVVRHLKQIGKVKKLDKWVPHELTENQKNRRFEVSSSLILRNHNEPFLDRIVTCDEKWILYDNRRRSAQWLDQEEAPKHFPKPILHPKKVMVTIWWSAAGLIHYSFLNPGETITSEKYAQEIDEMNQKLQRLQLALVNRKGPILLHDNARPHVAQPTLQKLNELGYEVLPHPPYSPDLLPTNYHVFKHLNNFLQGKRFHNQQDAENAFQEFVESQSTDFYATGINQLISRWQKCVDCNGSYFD
UniProt Q96ST3: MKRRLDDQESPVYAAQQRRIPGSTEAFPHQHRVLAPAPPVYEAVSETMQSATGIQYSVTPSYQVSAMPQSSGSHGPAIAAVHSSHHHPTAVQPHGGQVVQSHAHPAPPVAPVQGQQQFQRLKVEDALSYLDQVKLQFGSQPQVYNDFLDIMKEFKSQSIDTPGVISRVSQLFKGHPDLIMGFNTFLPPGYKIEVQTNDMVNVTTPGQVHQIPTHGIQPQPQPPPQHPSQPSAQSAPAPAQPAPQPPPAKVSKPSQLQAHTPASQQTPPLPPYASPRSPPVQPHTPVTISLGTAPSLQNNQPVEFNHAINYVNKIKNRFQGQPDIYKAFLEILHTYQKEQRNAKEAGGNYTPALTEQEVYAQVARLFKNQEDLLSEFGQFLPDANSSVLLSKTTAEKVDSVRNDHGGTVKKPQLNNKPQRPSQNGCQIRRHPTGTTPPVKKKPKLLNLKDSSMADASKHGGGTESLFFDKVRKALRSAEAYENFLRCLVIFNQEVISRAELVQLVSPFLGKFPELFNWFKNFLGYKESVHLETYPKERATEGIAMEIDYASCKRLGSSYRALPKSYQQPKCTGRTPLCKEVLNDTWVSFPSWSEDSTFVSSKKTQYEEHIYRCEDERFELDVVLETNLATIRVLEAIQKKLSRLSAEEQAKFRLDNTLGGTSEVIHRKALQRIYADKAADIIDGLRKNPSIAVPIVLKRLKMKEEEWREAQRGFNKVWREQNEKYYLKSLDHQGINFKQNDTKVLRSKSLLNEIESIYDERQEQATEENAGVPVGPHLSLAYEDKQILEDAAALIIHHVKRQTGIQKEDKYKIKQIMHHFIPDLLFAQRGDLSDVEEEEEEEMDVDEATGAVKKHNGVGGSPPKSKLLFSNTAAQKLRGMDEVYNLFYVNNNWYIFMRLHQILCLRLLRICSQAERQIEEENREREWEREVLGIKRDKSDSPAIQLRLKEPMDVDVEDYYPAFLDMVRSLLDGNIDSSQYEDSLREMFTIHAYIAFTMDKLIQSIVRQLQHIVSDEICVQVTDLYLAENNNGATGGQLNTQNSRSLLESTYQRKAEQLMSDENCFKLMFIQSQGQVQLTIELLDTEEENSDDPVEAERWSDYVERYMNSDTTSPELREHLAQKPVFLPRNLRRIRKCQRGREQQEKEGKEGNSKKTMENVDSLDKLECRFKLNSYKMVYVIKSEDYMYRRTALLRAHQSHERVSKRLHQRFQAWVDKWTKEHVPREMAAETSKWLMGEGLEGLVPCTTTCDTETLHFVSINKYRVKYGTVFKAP
UniProt P60468, whole entry, looked up: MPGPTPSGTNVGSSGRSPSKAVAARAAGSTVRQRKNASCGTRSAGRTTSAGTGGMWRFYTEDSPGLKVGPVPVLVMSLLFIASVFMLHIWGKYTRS
UniProt Q13530: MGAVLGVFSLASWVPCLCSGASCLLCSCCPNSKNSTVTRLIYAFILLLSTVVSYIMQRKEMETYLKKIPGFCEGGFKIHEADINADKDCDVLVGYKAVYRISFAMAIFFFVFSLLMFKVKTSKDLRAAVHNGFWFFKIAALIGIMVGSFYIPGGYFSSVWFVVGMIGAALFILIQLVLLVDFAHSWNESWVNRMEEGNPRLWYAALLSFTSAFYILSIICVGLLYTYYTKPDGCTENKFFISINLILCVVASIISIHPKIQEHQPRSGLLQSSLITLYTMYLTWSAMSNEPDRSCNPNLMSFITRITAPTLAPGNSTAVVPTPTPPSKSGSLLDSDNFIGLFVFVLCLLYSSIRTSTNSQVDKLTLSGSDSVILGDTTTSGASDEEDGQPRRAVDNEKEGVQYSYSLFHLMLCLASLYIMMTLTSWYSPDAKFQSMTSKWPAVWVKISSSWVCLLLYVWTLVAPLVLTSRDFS
UniProt Q8IZQ5, whole entry, looked up: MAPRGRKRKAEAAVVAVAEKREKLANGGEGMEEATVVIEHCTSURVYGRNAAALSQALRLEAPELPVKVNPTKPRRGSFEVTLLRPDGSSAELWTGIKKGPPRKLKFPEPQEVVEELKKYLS
UniProt Q96EE3: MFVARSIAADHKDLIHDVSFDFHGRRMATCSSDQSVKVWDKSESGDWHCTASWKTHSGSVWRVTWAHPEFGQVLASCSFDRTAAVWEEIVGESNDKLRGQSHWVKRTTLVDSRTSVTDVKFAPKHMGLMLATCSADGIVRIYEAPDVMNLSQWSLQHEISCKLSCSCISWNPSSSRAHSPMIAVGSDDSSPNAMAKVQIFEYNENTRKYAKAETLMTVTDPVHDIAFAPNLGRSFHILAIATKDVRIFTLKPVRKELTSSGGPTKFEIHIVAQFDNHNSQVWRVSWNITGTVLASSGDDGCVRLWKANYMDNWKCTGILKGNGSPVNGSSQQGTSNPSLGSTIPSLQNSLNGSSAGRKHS
UniProt Q86TU7: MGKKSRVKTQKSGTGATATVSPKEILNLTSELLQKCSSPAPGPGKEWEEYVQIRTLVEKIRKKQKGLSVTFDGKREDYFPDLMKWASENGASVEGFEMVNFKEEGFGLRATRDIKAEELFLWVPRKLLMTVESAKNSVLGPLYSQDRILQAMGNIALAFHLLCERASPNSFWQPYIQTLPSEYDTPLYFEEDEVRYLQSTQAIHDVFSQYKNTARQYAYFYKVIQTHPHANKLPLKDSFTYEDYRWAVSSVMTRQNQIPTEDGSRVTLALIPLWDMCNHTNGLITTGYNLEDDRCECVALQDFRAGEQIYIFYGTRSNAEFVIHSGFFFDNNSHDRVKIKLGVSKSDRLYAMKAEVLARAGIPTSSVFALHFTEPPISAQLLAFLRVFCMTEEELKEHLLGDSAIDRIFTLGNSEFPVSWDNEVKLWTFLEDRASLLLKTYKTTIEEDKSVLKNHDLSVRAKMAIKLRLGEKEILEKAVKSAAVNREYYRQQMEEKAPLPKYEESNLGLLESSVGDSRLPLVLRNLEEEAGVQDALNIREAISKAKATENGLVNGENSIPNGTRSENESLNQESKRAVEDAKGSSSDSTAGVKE
UniProt Q9NPR2: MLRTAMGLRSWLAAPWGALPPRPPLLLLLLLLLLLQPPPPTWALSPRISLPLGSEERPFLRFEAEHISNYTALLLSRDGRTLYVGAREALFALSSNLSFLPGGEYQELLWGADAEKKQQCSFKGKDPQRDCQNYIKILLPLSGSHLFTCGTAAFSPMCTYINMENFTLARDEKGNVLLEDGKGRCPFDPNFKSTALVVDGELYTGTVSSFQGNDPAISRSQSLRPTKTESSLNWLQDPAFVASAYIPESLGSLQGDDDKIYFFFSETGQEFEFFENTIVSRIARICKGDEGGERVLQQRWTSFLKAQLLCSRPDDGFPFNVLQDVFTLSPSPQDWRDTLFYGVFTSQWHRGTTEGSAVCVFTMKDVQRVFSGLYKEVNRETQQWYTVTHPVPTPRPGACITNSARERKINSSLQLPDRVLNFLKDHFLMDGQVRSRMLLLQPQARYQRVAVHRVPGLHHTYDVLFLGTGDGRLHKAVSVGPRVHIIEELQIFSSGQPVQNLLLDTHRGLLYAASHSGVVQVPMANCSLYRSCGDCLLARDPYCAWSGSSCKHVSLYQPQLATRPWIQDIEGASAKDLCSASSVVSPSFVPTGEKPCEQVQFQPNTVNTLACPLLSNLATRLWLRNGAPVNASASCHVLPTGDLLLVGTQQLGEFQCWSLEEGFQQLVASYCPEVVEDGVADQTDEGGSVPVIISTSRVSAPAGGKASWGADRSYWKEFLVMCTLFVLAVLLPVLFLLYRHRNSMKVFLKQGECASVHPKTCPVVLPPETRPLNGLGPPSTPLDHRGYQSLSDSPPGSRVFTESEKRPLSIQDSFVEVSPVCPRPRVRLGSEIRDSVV
UniProt O75368: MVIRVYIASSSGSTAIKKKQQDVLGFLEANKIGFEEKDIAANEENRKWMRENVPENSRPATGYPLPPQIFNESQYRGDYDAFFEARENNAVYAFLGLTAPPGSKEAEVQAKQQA
UniProt Q9NR46: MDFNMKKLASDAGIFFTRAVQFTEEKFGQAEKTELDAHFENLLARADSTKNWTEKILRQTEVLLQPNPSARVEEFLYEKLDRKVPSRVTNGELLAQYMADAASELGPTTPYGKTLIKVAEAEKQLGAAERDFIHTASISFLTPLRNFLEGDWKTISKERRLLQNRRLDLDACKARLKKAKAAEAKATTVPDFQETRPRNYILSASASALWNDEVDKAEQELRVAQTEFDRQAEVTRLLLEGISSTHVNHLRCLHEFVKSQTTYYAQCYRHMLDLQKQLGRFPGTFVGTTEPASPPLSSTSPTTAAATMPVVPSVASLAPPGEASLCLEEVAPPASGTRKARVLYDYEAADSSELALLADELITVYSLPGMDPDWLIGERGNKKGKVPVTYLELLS

Tests used:
Assay in all cases: log2 fold change, soluble protein after heating vs DMSO (PISA); higher = thermal stabilisation; K562 cells, 10 uM, 30 min; active = over 0.2 and 3.5 SD of the protein, either way, in both replicates (recomputed)
[1] = compound: C1COCCN1CCN2C3=CC=CC=C3N=C2NC(=O)C4=CC(=CC=C4)[N+](=O)[O-] [IRAK-1-4 Inhibitor I]
Method in brief: (§1)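 Soluble protein was quantified by TMTpro 16plex LC-MS/MS after channel sums were equalised. It was obtained as the supernatant after 21,000xg for 90 min from pooled aliquots of K562 cells (2×10^6 cells/mL, 10 μM compound, 30 min) heated for 3 min across 48°C-58°C and extracted in PBS with 0.5% NP-40 at 4°C. Thermal stability values are relative to control samples and come from duplicates. They are given as log2 fold changes.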

[2] = compound: C=CC(=O)N1CCC[C@@H](n2nc(-c3ccc(Oc4ccccc4)cc3)c3c(N)ncnc32)C1 [ibrutinib]
Method in brief: as §1

[3] = compound: CC(=O)c1cnc2ccc(-c3cc(Cl)c(O)c(Cl)c3)nc2c1N[C@H]1CC[C@H](CN(C)C)CC1
Method in brief: as §1

[4] = compound: CC(C)(C)Cn1c(N)nc2ccc(-c3[nH]c(C(C)(C)C)nc3-c3ccc(F)cc3)nc21 [ralimetinib]
Method in brief: as §1

[5] = compound: CC(C)(O)CC(=O)NCCn1ccc2ncnc(Nc3ccc(Oc4cccc(C(F)(F)F)c4)c(Cl)c3)c21
Method in brief: as §1

[6] = compound: CC(C)C1=C2N=C(C=C(N2N=C1)NCC3=CC=CC=C3)NCCCCCCN
Method in brief: as §1

[7] = compound: CC(C)C[C@@H](C=O)NC(=O)[C@H](CC(C)C)NC(=O)[C@H](CC(C)C)NC(=O)OCc1ccccc1
Method in brief: as §1

[8] = compound: CC(C)N(C[C@H]1O[C@@H](n2cnc3c(N)ncnc32)[C@H](O)[C@@H]1O)[C@H]1C[C@@H](CCc2nc3cc(C(C)(C)C)ccc3[nH]2)C1 [pinometostat]
Method in brief: as §1

[9] = compound: CC1=C(C(CC(=O)N1)C2=CC=C(C=C2)C(F)(F)F)C(=O)NC3=C(C=C4C(=C3)C=NN4)F
Method in brief: as §1

[10] = compound: CC1=C(C2=C(C=C1)C(=O)C3=CC=CC=C3N2CCCN)C
Method in brief: as §1

Measured: log2 fold change

SERPINC1 (UniProt P01008)
inactive: [1] 0.089 | [2] 0.284 | [3] 0.039 | [4] 0.02 | [5] 0.268 | [6] 0.111 | [7] 0.091 | [8] -0.059 | [9] 0.026 | [10] -0.359

SHKBP1 (UniProt Q8TBC3)
inactive: [1] 0.004 | [2] 0.068 | [3] -0.022 | [4] -0.074 | [5] -0.034 | [6] 0.139 | [7] 0.206 | [8] 0 | [9] 0.019 | [10] 0.023

SEC61A2 (UniProt Q9H9S3)
inactive: [1] 0.051 | [2] 0.01 | [3] 0.021 | [4] -0.086 | [5] -0.063 | [6] 0.009 | [7] -0.125 | [8] -0.08 | [9] -0.007 | [10] 0.017

SELENOS (UniProt Q9BQE4)
inactive: [1] 0.044 | [2] 0.059 | [3] -0.014 | [4] -0.064 | [5] -0.083 | [6] 0.055 | [7] 0.036 | [8] -0.084 | [9] 0.01 | [10] -0.04

SGO1 (UniProt Q5FBB7)
inactive: [1] 0.019 | [2] -0.036 | [3] 0.007 | [4] -0.027 | [5] 0.011 | [6] -0.1 | [7] 0.072 | [8] -0.001 | [9] -0.028 | [10] -0.165

SERPINI1 (UniProt Q99574)
inactive: [1] 0.053 | [2] 0.007 | [3] 0.014 | [4] 0.029 | [5] 0.07 | [6] 0.064 | [7] 0.01 | [8] -0.044 | [9] 0 | [10] -0.037

SIRT2 (UniProt Q8IXJ6)
inactive: [1] 0.047 | [2] -0.003 | [3] -0.003 | [4] -0.023 | [5] 0.041 | [6] -0.033 | [7] 0.028 | [8] -0.002 | [10] -0.022

SETMAR (UniProt Q53H47)
active: [10] 0.509
inactive: [1] 0.093 | [2] -0.04 | [3] -0.135 | [4] -0.025 | [5] 0.047 | [6] 0.227 | [7] -0.061 | [8] 0.078

SF3B3 (UniProt Q15393)
inactive: [1] 0.021 | [2] 0.013 | [3] -0.025 | [4] -0.033 | [5] -0.009 | [6] 0.075 | [7] 0.017 | [8] 0.006 | [9] -0.039 | [10] 0.074

SIN3A (UniProt Q96ST3)
inactive: [1] -0.041 | [2] -0.154 | [3] 0.024 | [4] 0.09 | [5] -0.113 | [6] -0.152 | [7] 0.069 | [8] 0.177 | [9] 0.101 | [10] -0.092

SEC61B (UniProt P60468)
inactive: [1] 0.013 | [2] 0 | [3] 0.031 | [4] -0.132 | [5] 0.069 | [6] 0.001 | [7] -0.039 | [8] -0.051 | [9] 0 | [10] -0.06

SERINC3 (UniProt Q13530)
inactive: [1] -0.006 | [2] -0.01 | [3] -0.027 | [4] -0.14 | [5] -0.304 | [7] 0.17 | [8] -0.01 | [10] -0.039
active: [6] -0.399

SELENOH (UniProt Q8IZQ5)
inactive: [1] -0.018 | [2] -0.039 | [3] 0.13 | [4] 0.086 | [5] -0.017 | [6] 0.059 | [7] -0.012 | [8] -0.012 | [10] 0.057

SERGEF (UniProt Q9UGK8)
inactive: [1] 0.037 | [2] -0.032 | [3] 0.009 | [4] -0.139 | [5] -0.094 | [6] -0.065 | [7] 0.187 | [8] 0.059 | [9] 0.01 | [10] 0.101

SESN2 (UniProt P58004)
inactive: [1] -0.143 | [2] 0.034 | [3] 0 | [4] 0.21 | [5] -0.049 | [6] -0.407 | [7] 0.055 | [8] 0.081 | [10] -0.017

SIDT2 isoform 2 (UniProt Q8NBJ9)
active: [6] -0.353
inactive: [1] -0.017 | [2] 0.123 | [3] -0.039 | [4] -0.143 | [5] -0.021 | [7] 0 | [8] 0.271 | [10] 0.005

SEH1L isoform 1 (UniProt Q96EE3)
inactive: [1] 0.028 | [2] -0.021 | [3] -0.056 | [4] -0.014 | [5] 0.03 | [6] -0.019 | [7] -0.026 | [8] 0.011 | [10] 0

SF3A1 (UniProt Q15459)
inactive: [1] -0.018 | [2] 0.004 | [3] 0.033 | [4] 0.046 | [5] -0.02 | [6] 0.082 | [7] -0.018 | [8] -0.001 | [9] 0.011 | [10] 0.002

SETD3 (UniProt Q86TU7)
inactive: [1] -0.007 | [2] 0.011 | [3] -0.018 | [4] -0.041 | [5] -0.013 | [6] 0.027 | [7] -0.022 | [8] 0.002 | [10] 0.05

SKP1 (UniProt P63208)
inactive: [1] 0.069 | [2] 0.054 | [3] 0.03 | [4] -0.02 | [5] -0.045 | [6] 0.068 | [7] -0.069 | [8] -0.08 | [10] -0.049

SEPTIN5 (UniProt Q99719)
inactive: [1] 0.014 | [2] -0.013 | [3] -0.031 | [4] -0.084 | [5] -0.03 | [6] 0.034 | [7] -0.051 | [8] -0.041 | [10] 0.011

SEMA4B (UniProt Q9NPR2)
inactive: [1] -0.011 | [2] 0.013 | [3] 0.085 | [4] 0.169 | [5] -0.067 | [6] 0.074 | [7] 0.003 | [8] 0.068 | [9] -0.056 | [10] -0.106

SIL1 (UniProt Q9H173)
inactive: [1] -0.06 | [2] -0.095 | [3] -0.008 | [4] 0.038 | [5] -0.064 | [6] -0.026 | [7] -0.049 | [8] 0.079 | [9] 0.054 | [10] 0.017

SH3BGRL (UniProt O75368)
inactive: [1] 0.053 | [2] -0.003 | [3] 0.027 | [4] -0.026 | [5] -0.06 | [6] 0.049 | [7] -0.113 | [8] -0.055 | [9] -0.01 | [10] 0.023

Quoted from the results shown (two entries):
SIN3A (UniProt Q96ST3)
inactive: [1] -0.041 | [2] -0.154 | [3] 0.024 | [4] 0.09 | [5] -0.113 | [6] -0.152 | [7] 0.069 | [8] 0.177 | [9] 0.101 | [10] -0.092

SEC61B (UniProt P60468)
inactive: [1] 0.013 | [2] 0 | [3] 0.031 | [4] -0.132 | [5] 0.069 | [6] 0.001 | [7] -0.039 | [8] -0.051 | [9] 0 | [10] -0.06

(listing goes on)

SERPINA7 (UniProt P05543)
inactive: [1] 0.095 | [2] 0.229 | [3] 0.227 | [4] -0.062 | [5] 0.314 | [6] 0.066 | [7] 0.043 | [8] 0 | [10] -0.245

SH3GLB2 (UniProt Q9NR46)
inactive: [1] 0.028 | [2] 0.004 | [3] -0.047 | [4] 0.033 | [5] 0.028 | [7] 0.066 | [8] -0.004 | [10] -0.021
active: [6] -0.27
